Experimental findings from the supplement of paper PMC8728848 are described below.

Assay in all cases: glycan array binding signal (z-score within array); higher = stronger binding
What all share (details): glycan notation: IUPAC condensed, linker removed

The target of assay [1] is Gal(b1-4)GlcNAc(b1-3)Gal(b1-4)GlcNAc(b1-3)Gal(b1-4)GlcNAc(b1-3)Gal(b1-4)GlcNAc(b1-2)Man(a1-3)[Gal(b1-4)GlcNAc(b1-3)Gal(b1-4)GlcNAc(b1-3)Gal(b1-4)GlcNAc(b1-3)Gal(b1-4)GlcNAc(b1-2)Man(a1-6)]Man(b1-4)GlcNAc(b1-4)[Fuc(a1-6)]GlcNAc. An outline of the steps: (§1)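 The Consortium for Functional Glycomics database supplied 3228 glycan arrays, of which those lacking an available protein sequence were dropped. The binding signal, a within-array Z-score, was averaged across arrays of the same protein sequence and across linkers. Negative scores can be read as non-binding.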

Assay [2] deals with Gal(b1-4)GlcNAc(b1-3)Gal(b1-4)GlcNAc(b1-3)Gal(b1-4)GlcNAc(b1-3)Gal(b1-4)GlcNAc(b1-2)[Gal(b1-4)GlcNAc(b1-3)Gal(b1-4)GlcNAc(b1-3)Gal(b1-4)GlcNAc(b1-3)Gal(b1-4)GlcNAc(b1-6)]Man(a1-6)[Gal(b1-4)GlcNAc(b1-3)Gal(b1-4)GlcNAc(b1-3)Gal(b1-4)GlcNAc(b1-3)Gal(b1-4)GlcNAc(b1-2)Man(a1-3)]Man(b1-4)GlcNAc(b1-4)[Fuc(a1-6)]GlcNAc. An outline of the steps: as §1
For assay [3], the target named is Gal(b1-4)GlcNAc(b1-3)Gal(b1-4)GlcNAc(b1-3)Gal(b1-4)GlcNAc(b1-3)Gal(b1-4)GlcNAc(b1-3)Gal(b1-4)GlcNAc(b1-2)Man(a1-3)[Gal(b1-4)GlcNAc(b1-3)Gal(b1-4)GlcNAc(b1-3)Gal(b1-4)GlcNAc(b1-3)Gal(b1-4)GlcNAc(b1-3)Gal(b1-4)GlcNAc(b1-2)Man(a1-6)]Man(b1-4)GlcNAc(b1-4)GlcNAc. An outline of the steps:
as §1

Assay [4] concerns the target Gal(b1-4)GlcNAc(b1-3)Gal(b1-4)GlcNAc(b1-3)Gal(b1-4)GlcNAc(b1-3)Gal(b1-4)GlcNAc(b1-3)Gal(b1-4)GlcNAc(b1-2)Man(a1-3)[Gal(b1-4)GlcNAc(b1-3)Gal(b1-4)GlcNAc(b1-3)Gal(b1-4)GlcNAc(b1-3)Gal(b1-4)GlcNAc(b1-3)Gal(b1-4)GlcNAc(b1-2)Man(a1-6)]Man(b1-4)GlcNAc(b1-4)[Fuc(a1-6)]GlcNAc. An outline of the steps: as §1
Assay [5] concerns the target Gal(b1-4)GlcNAc(b1-3)Gal(b1-4)GlcNAc(b1-3)Gal(b1-4)GlcNAc(b1-3)Gal(b1-4)GlcNAc(b1-3)Gal(b1-4)GlcNAc(b1-2)[Gal(b1-4)GlcNAc(b1-3)Gal(b1-4)GlcNAc(b1-3)Gal(b1-4)GlcNAc(b1-3)Gal(b1-4)GlcNAc(b1-3)Gal(b1-4)GlcNAc(b1-6)]Man(a1-6)[Gal(b1-4)GlcNAc(b1-3)Gal(b1-4)GlcNAc(b1-3)Gal(b1-4)GlcNAc(b1-3)Gal(b1-4)GlcNAc(b1-3)Gal(b1-4)GlcNAc(b1-2)Man(a1-3)]Man(b1-4)GlcNAc(b1-4)[Fuc(a1-6)]GlcNAc. The method, boiled down:
as §1

The target in assay [6] is Gal(b1-4)GlcNAc(b1-3)Gal(b1-4)GlcNAc(b1-3)Gal(b1-4)GlcNAc(b1-3)Gal(b1-4)GlcNAc(b1-3)Gal(b1-4)GlcNAc(b1-3)Gal(b1-4)GlcNAc(b1-2)Man(a1-3)[Gal(b1-4)GlcNAc(b1-3)Gal(b1-4)GlcNAc(b1-3)Gal(b1-4)GlcNAc(b1-3)Gal(b1-4)GlcNAc(b1-3)Gal(b1-4)GlcNAc(b1-3)Gal(b1-4)GlcNAc(b1-2)Man(a1-6)]Man(b1-4)GlcNAc(b1-4)GlcNAc. The method, boiled down: as §1
In assay [7] the target is Gal(b1-4)GlcNAc(b1-3)Gal(b1-4)GlcNAc(b1-3)GalNAc. The method, boiled down: as §1
For assay [8], the target named is Gal(b1-4)GlcNAc(b1-3)Gal(b1-4)GlcNAc(b1-3)[Gal(b1-4)GlcNAc(b1-3)Gal(b1-4)GlcNAc(b1-6)]GalNAc. An outline of the steps:
as §1

Assay [9] has as its target Gal(b1-4)GlcNAc(b1-3)Gal(b1-4)GlcNAc(b1-6)[Gal(b1-3)]GalNAc. An outline of the steps:
as §1

Assay [10] addresses Gal(b1-4)GlcNAc(b1-3)Gal(b1-4)[Fuc(a1-3)]GlcNAc(b1-3)Gal(b1-4)[Fuc(a1-3)]GlcNAc. The method, boiled down:
as §1

For assay [11], the target named is Gal(b1-4)GlcNAc(b1-3)GalNAc. An outline of the steps:
as §1

Assay [12] deals with Gal(b1-4)GlcNAc(b1-3)[Fuc(a1-3)GlcNAc(b1-6)]Gal(b1-4)Glc. An outline of the steps:
as §1

Assay [13] deals with Gal(b1-4)GlcNAc(b1-3)[Gal(b1-4)GlcNAc(b1-6)]Gal(b1-4)GlcNAc. An outline of the steps: as §1
The target in assay [14] is Gal(b1-4)GlcNAc(b1-3)[GlcNAc(b1-6)]Gal(b1-4)GlcNAc. An outline of the steps: as §1
For assay [15], the target named is Gal(b1-4)GlcNAc(b1-6)Gal(b1-4)GlcNAc. An outline of the steps:
as §1

Assay [16] deals with Gal(b1-4)GlcNAc(b1-6)GalNAc. An outline of the steps:
as §1

The target in assay [17] is Gal(b1-4)GlcNAc(b1-6)[Gal(b1-3)]GalNAc. An outline of the steps: as §1
For assay [18], the target named is Gal(b1-4)GlcNAc(b1-6)[Gal(b1-4)GlcNAc(b1-3)]GalNAc. An outline of the steps:
as §1

For assay [19], the target named is Gal(b1-4)GlcNAc6P. An outline of the steps: as §1
The target in assay [20] is Gal(b1-6)Gal. The method, boiled down:
as §1

For assay [21], the target named is Gal3S(b1-3)GalNAc. The method, boiled down:
as §1

The target in assay [22] is Gal3S(b1-3)GlcNAc. An outline of the steps: as §1
For assay [23], the target named is Gal3S(b1-3)[Fuc(a1-4)]GlcNAc. An outline of the steps:
as §1

This is one part of the list.

B1: Tp0751, 83732 (protein)
chain: MSYYHHHHHHLESTSLYKKAGFQHGHVPPRRIPPHDTFGALPTAALPSNARDTAAHPSDTADNTSGSSTTTDPRSHGNAPPAPVGGAAQTHTQPPVQTAMRIALWNRATHGEQGALQHLLAGLWIQTEISPNSGDIHPLLFFDREHAEITFSRASVQEIFLVDSAHTHRKTVSFLTRNTAISSIRRRLEVTFESHEVIHVRAVEDVARLKIGSTSMWDGQYTRYHAGPASAPSP
In the case of B1, the “glycan array binding signal (z-score)” value in assay [1] is -0.275; in [2], 0.22; in [3], -0.277; in [4], -0.211; in [5], 0.639; in assay [6] it was -0.219. Also, the “glycan array binding signal (z-score)” value in assay [7] was 1.22; in assay [8], 1.78; in [9], -0.299; in assay [10], -0.33; in [11], -0.427; in assay [12], -0.754. Besides, the “glycan array binding signal (z-score)” value in assay [13] is -0.425; in [14], -0.712; in assay [15] it was -0.27; in [16], 0.448; in assay [17], -0.123; in assay [18] it was 0.39. For the same molecule, the “glycan array binding signal (z-score)” value was 0.109 in [19]; -0.539 in assay [20]; 3.13 in [21]; 0.677 in assay [22]; 0.145 in assay [23].
